## Assay results

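Malaria parasite (P. falciparum) lines kept in red blood cells; parasite DNA is measured by SYBR Green fluorescence after lysis, 72 h after compound addition.
Each compound was titrated across a series from about 0.000037 to 29 µM.
The number is the fitted AC50, the concentration giving a half-maximal change in signal; a lower value means higher potency, whether the curve shows a decrease or an increase.
Calls follow the curve class and fit quality: every row here is inconclusive, covering signal-raising curves and weak, poorly fitted, partial or highest-dose-only inhibition curves.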

Values are in µM.
All entries here are filed as inconclusive.
Only part of the assay is shown, chiefly results filed as inconclusive.
Potencies fitted to partial, single-point or poorly fitting curves are rough.
Some entries filed as inconclusive have a full curve.
The first word of each remark tells which way the curve ran; it can be opposite to the aim of the assay.

compound | tested on / at | potency (µM) | remark
Clc1ccc(C(Cn2ccnc2)OCc2ccsc2Cl)c(Cl)c1 (stereo not drawn) | FAB9 | 11.22 | inhibitor, single point
Clc1ccc(C(Cn2ccnc2)OCc2ccsc2Cl)c(Cl)c1 (stereo not drawn) | CP266 | 15.1 | inhibitor, partial curve, poor fit
Clc1ccc(C(Cn2ccnc2)OCc2ccsc2Cl)c(Cl)c1 (stereo not drawn) | C2A | 10 | inhibitor, single point
CC1(C)S[C@H]2C(NC(=O)[C@@H](N)c3ccc(O)cc3)C(=O)N2[C@@H]1C(=O)O (stereo partly drawn) | parasite line B | 17.78 | inhibitor, single point
CC1(C)S[C@H]2C(NC(=O)[C@@H](N)c3ccc(O)cc3)C(=O)N2[C@@H]1C(=O)O (stereo partly drawn) | TAB113 | 0.3548 | inhibitor, single point
CC(C)CC(NC(=O)C(COC(C)(C)C)NC(=O)C(Cc1ccc(O)cc1)NC(=O)C(CO)NC(=O)C(Cc1c[nH]c2ccccc12)NC(=O)C(Cc1cnc[nH]1)NC(=O)C1CCC(=O)N1)C(=O)NC(CCCN=C(N)N)C(=O)N1CCCC1C(=O)NNC(N)=O (stereo not drawn) | TAB113 | 2.512 | inhibitor, single point
CC(C)CC(NC(=O)C(COC(C)(C)C)NC(=O)C(Cc1ccc(O)cc1)NC(=O)C(CO)NC(=O)C(Cc1c[nH]c2ccccc12)NC(=O)C(Cc1cnc[nH]1)NC(=O)C1CCC(=O)N1)C(=O)NC(CCCN=C(N)N)C(=O)N1CCCC1C(=O)NNC(N)=O (stereo not drawn) | CP260 | 17.78 | inhibitor, single point
CC1OC(OCC2OC(Oc3c(-c4ccc(OCCO)c(OCCO)c4)oc4cc(OCCO)cc(O)c4c3=O)C(O)C(O)C2O)[C@@H](O)C(O)C1O (stereo partly drawn) | P93_24 | 1.778 | inhibitor, single point
O=C1NC(=O)C(c2ccccc2)(c2ccccc2)N1 | CP315 | 3.013 | inhibitor, partial curve, poor fit
CC(C)[C@@H](N)C(=O)O | W2 | 1.694 | inhibitor, partial curve, poor fit
CC[C@H](NC(C)C)[C@H](O)c1ccc(O)c2[nH]c(=O)ccc12 | DIV30 | 0.0005 | activator
O=C1c2ccccc2-c2n[nH]c3cccc1c23 | ICS | 11.22 | inhibitor, partial curve, poor fit
O=C1c2ccccc2-c2n[nH]c3cccc1c23 | 7G8 | 5.623 | inhibitor, partial curve
O=C1c2ccccc2-c2n[nH]c3cccc1c23 | GB4 | 21.33 | inhibitor, partial curve, poor fit
O=C1c2ccccc2-c2n[nH]c3cccc1c23 | PC26 | 6.012 | inhibitor, partial curve, poor fit
O=C1c2ccccc2-c2n[nH]c3cccc1c23 | W2 | 19.01 | inhibitor, single point
O=C1c2ccccc2-c2n[nH]c3cccc1c23 | CP215 | 12 | inhibitor, partial curve, poor fit
O=C1c2ccccc2-c2n[nH]c3cccc1c23 | CP335 | 15.1 | inhibitor, partial curve, poor fit
NC(=S)N/N=C/c1cccnc1 | CP247 | 3.981 | inhibitor, single point
NC(=S)N/N=C/c1cccnc1 | W2 | 0.0038 | inhibitor, full curve, poor fit
CCCN[C@@H](C)C(=O)Nc1ccccc1C | CP266 | 16.94 | inhibitor, partial curve, poor fit
Cc1cccc(C)c1NC(=O)CN(CC(=O)O)CC(=O)O | W2 | 0.0024 | inhibitor, full curve, poor fit
C[C@@H](O)[C@@H]1C(=O)N2C(C(=O)O)=C([C@H]3CCCO3)S[C@H]12 | CP201 | 0.0005 | activator
CC12CCC(C1)C(C)(C)C2=O (stereo not drawn) | CP203 | 0.0017 | activator, full curve
CCc1cc(C(N)=S)ccn1 | CP201 | 0.0005 | activator
NC(=O)[C@@H]1CCCN1C(=O)[C@H](Cc1cnc[nH]1)NC(=O)[C@@H]1CCC(=O)N1 | 7G8 | 17.78 | inhibitor, single point
NC(=O)CS(=O)C(c1ccccc1)c1ccccc1 (stereo not drawn) | 7G8 | 17.78 | inhibitor, single point
CCC1(c2ccccc2)C(=O)NC(=O)NC1=O | CP192 | 19.01 | inhibitor, single point
CCC1(c2ccccc2)C(=O)NC(=O)NC1=O | AS120 | 3.981 | inhibitor, single point
Nc1nc2c(ncn2COC(CO)CO)c(=O)[nH]1 | CP297 | 8.087 | inhibitor, single point
Nc1nc2c(ncn2COC(CO)CO)c(=O)[nH]1 | CP215 | 8.087 | inhibitor, partial curve, poor fit
Nc1nc2c(ncn2COC(CO)CO)c(=O)[nH]1 | CP266 | 0.002 | inhibitor, full curve, poor fit
COc1cc2nc(N3CCN(C(=O)[C@@H]4CCCO4)CC3)nc(N)c2cc1OC | CP266 | 0.0027 | activator, full curve, poor fit
COc1cc2nc(N3CCN(C(=O)[C@@H]4CCCO4)CC3)nc(N)c2cc1OC | W2 | 12 | inhibitor, single point
c1cnc(N2CCN(Cc3ccc4c(c3)OCO4)CC2)nc1 | DIV14 | 19.01 | inhibitor, single point
c1cnc(N2CCN(Cc3ccc4c(c3)OCO4)CC2)nc1 | CP297 | 19.01 | inhibitor, single point
CC1=C(C(=O)O)N2C(=O)[C@@H](NC(=O)[C@@H](N)c3ccc(O)cc3)[C@@H]2SC1 | CP211 | 1.282 | inhibitor, single point
CN1C(=O)COc2c(C(=O)NC3CN4CCC3CC4)cc(Cl)cc21 (stereo not drawn) | 7G8 | 17.78 | inhibitor, single point
C[C@@H]1COc2c(N3CCN(C)CC3)c(F)cc3c(=O)c(C(=O)O)cn1c23 | W2 | 19.01 | inhibitor, single point
C[C@@H]1COc2c(N3CCN(C)CC3)c(F)cc3c(=O)c(C(=O)O)cn1c23 | CP260 | 11.22 | inhibitor, single point
Cc1cnc(C(=O)O)c[n+]1[O-] | CP266 | 0.019 | inhibitor, full curve, poor fit
Cc1cnc(C(=O)O)c[n+]1[O-] | CP260 | 11.22 | inhibitor, single point
CN1CCN2c3ccccc3Cc3ccccc3C2C1 (stereo not drawn) | W2 | 1.51 | inhibitor, single point
O=C(OCc1ccccc1)c1ccc(O)cc1 | 7G8 | 8.912 | inhibitor, partial curve
O=C(OCc1ccccc1)c1ccc(O)cc1 | DIV14 | 19.01 | inhibitor, single point
Clc1ccc(C2(Cn3cncn3)OCCO2)c(Cl)c1 | 7G8 | 11.22 | inhibitor, single point
COc1ccc2c(c1)C13CCCC[C@@H]1C(C2)N(C)CC3 (stereo partly drawn) | CP203 | 4.776 | inhibitor, partial curve
C[CH2][Hg][S]c1ccccc1C(=O)O | CP262 | 3.381 | inhibitor, single point
C[CH2][Hg][S]c1ccccc1C(=O)O | CP203 | 4.256 | inhibitor, full curve, poor fit
CCN(CC)C(=S)S | W2 | 10.69 | inhibitor, partial curve, poor fit
CC(=O)Nc1cc([As](=O)(O)O)ccc1O | CP201 | 4.256 | inhibitor, single point
C#C[C@]1(O)CC[C@H]2[C@@H]3CCC4=CC(=O)CC[C@@H]4[C@H]3CC[C@@]21CC | HB3 | 8.912 | inhibitor, single point
O=C(NCCO[N+](=O)[O-])c1cccnc1 | CP266 | 0.019 | inhibitor, full curve, poor fit
COC(=O)C[C@](O)(CCCC(C)(C)O)C(=O)O[C@@H]1C(OC)=C[C@]23CCCN2CCc2cc4c(cc2[C@H]13)OCO4 | CP266 | 0.0095 | inhibitor, full curve, poor fit
COC(=O)C[C@](O)(CCCC(C)(C)O)C(=O)O[C@@H]1C(OC)=C[C@]23CCCN2CCc2cc4c(cc2[C@H]13)OCO4 | CP329 | 0.0012 | inhibitor, full curve, poor fit
O=C(O)CCCc1ccc(N(CCCl)CCCl)cc1 | CP250 | 14.13 | inhibitor, single point

4 of the entries, repeated:

compound	tested on / at	potency (µM)	remark
CC1=C(C(=O)O)N2C(=O)[C@@H](NC(=O)[C@@H](N)c3ccc(O)cc3)[C@@H]2SC1	CP211	1.282	inhibitor, single point
Nc1nc2c(ncn2COC(CO)CO)c(=O)[nH]1	CP297	8.087	inhibitor, single point
CC12CCC(C1)C(C)(C)C2=O (stereo not drawn)	CP203	0.0017	activator, full curve
O=C(O)CCCc1ccc(N(CCCl)CCCl)cc1	CP250	14.13	inhibitor, single point

Data taken from PubChem BioAssay AID504749, deposited by NCATS (2011).